Where “and” joins values, the source holds several entries; their conditions need not be identical. Equal values may be shown once. This is one part of the list. Shown are side measurements of this screen, not its main read-out; they come without a call. Compounds called inactive in the main read-out are mostly missing here. Words in brackets tell the shape of the fitted curve; partial curves, single points and poor fits give uncertain potencies.
Assay: Cell signaling CRE-BLA (Fsk stim)
Details: CHO CRE-bla reporter (cAMP response element driving beta-lactamase), forskolin EC10, beta-lactamase ratio; measured here: 460 nm blue channel
How it was run: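 Beta-lactamase reporter under a cAMP responsive element in CHO cells; compounds tested in titration series against EC10 NKH 477, 3 h at 37 °C. Read-out: CCF4 FRET ratio 460nm/530nm (excitation 405nm) giving %Activity, fitted to AC50.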

Which AC50 does the source give for `COc1cccc(C(=O)Nc2ccc(C(=O)O)cc2)c1` here?
The AC50 was 12.6 µM [rising, single point].

With `COc1cc(C(=O)Nc2c(-c3ccccn3)c(=O)c3ccccc3n2C)cc(OC)c1OC` as the molecule, how does the AC50 read?
The AC50 was 0.794 µM [rising, full curve].

With `N#Cc1nc(COc2cccc(Cl)c2)oc1NCc1ccncc1` as the molecule, how does the AC50 read?
Its AC50 is 10 µM [rising, single point].

Which AC50 does the source give for `CCCCOCCCn1cnc2c([nH]c3cc(OC)ccc32)c1=O` here?
Its AC50 is 12.6 µM [rising, single point].

For `CCCCN(C)CCCNC(=O)C1CC(=O)N(Cc2ccc(OC)cc2)C1` (stereo not drawn), which AC50 is on record?
Its AC50 is 0.0316 µM [falling, full curve, poor fit].

With `CN(C(=O)NC(=O)C1=C(N2CCOCC2)/C(=C/c2ccccc2)CC1)S(C)(=O)=O` as the molecule, how does the AC50 read?
Its AC50 is 15.8 µM [rising, single point].

With `COc1ccc(C(=O)N2CCSC2=S)cc1OC` as the molecule, how does the AC50 read?
Its AC50 is 10 µM [falling, partial curve].

Which AC50 does the source give for `CCCC(=O)Nc1cccc(-c2cn3ccsc3n2)c1` here?
The AC50 was 12.6 µM [rising, single point].

Which AC50 does the source give for `Cc1cc2c(c(N)n1)c(=O)oc1ccccc12` here?
The AC50 was 1.26 µM [rising, full curve].

For `CCCN1Cc2cccc(C(=O)NCc3ccc4c(c3)OCO4)c2C1=O`, which AC50 is on record?
The AC50 was 12.6 µM [rising, partial curve].

With `Cc1nn(-c2ccc(F)cc2F)c2c1-c1nc(N3CCCC3)ncc1CC2` as the molecule, how does the AC50 read?
Its AC50 is 10 µM [rising, partial curve].

With `CCCN1Cc2cccc(C(=O)Nc3cc(OC)cc(OC)c3)c2C1=O` as the molecule, how does the AC50 read?
The AC50 was 1.26 µM [rising, full curve].

Which AC50 does the source give for `COC(=O)c1ccc(COc2cc(O)c3c(c2)OC(C)(C)CC3=O)cc1` here?
Its AC50 is 25.1 µM [rising, single point].

With `N=c1n(CCN2CCCCC2)c2ccccc2n1CC(O)c1cccc(Br)c1` (stereo not drawn) as the molecule, how does the AC50 read?
The AC50 was 7.94 µM [falling, partial curve].

With `COc1cccc(-c2cc(=O)c3cc(O)ccc3o2)c1` as the molecule, how does the AC50 read?
The AC50 was 3.98 µM [falling, single point].

Which AC50 does the source give for `CCOC(=O)N1CCN(c2nc3ccccc3nc2C(C#N)C(=O)NCCc2ccccc2)CC1` (stereo not drawn) here?
The AC50 was 3.98 µM [rising, partial curve].

Which AC50 does the source give for `COc1ccc(-c2nnn(Cc3nc(N)nc(N4CCCCC4)n3)n2)cc1` here?
Its AC50 is 3.16 µM [rising, partial curve].

For `COCCNc1ncnc2ccc(-c3ccccc3C)cc12`, which AC50 is on record?
Its AC50 is 6.31 µM [rising, partial curve].

For `CCOC(=O)N1CCN(C2=Nc3cccc4cccc2c34)CC1`, which AC50 is on record?
The AC50 was 3.16 µM [rising, full curve].

With `O=C(c1ccccc1)N1CCN(C(=O)N2CCOCC2)CC1` as the molecule, how does the AC50 read?
Its AC50 is 0.631 µM [falling, full curve].

For `CC(CCc1ccccc1)NC(=O)CN1CCN(Cc2ccccc2)C1=O` (stereo not drawn), which AC50 is on record?
Its AC50 is 1 µM [rising, single point].

For `Cc1ccc(OCC(O)Cn2c(=N)n(CCN3CCCCC3)c3ccccc32)cc1` (stereo not drawn), which AC50 is on record?
Its AC50 is 2 µM [rising, full curve, poor fit].

For `COc1ccc(C(C(=O)NC2CCCC2)N(CCN(C)C)C(=O)c2snc(C(N)=O)c2N)cc1` (stereo not drawn), which AC50 is on record?
Its AC50 is 5.01 µM [falling, single point].

For `CCN(CC)CCN1C(=O)C2C3c4ccccc4C(c4ccccc43)C2C1=O` (stereo not drawn), which AC50 is on record?
The AC50 was 0.00316 µM [falling, full curve, poor fit].

Which AC50 does the source give for `COc1ccc(C)cc1-n1c(SCC(=O)Nc2cc(C)on2)nc2sc(C)c(C)c2c1=O` here?
The AC50 was 5.01 µM [rising, partial curve].

With `Cc1ccc(S(=O)(=O)N2CC(=O)Nc3ccccc32)cc1C` as the molecule, how does the AC50 read?
Its AC50 is 0.00398 µM [falling, full curve, poor fit].

Which AC50 does the source give for `CC1CCc2c(C(=O)Oc3cccc(-n4cnnn4)c3)csc2C1` (stereo not drawn) here?
Its AC50 is 25.1 µM [rising, single point].

Which AC50 does the source give for `O=c1cnc2cncnc2n1Cc1ccccc1Cl` here?
The AC50 was 5.01 µM [rising, full curve].

Which AC50 does the source give for `COc1ccc(-c2cc(C(=O)N3CCN(c4ccccn4)CC3)c3ccccc3n2)cc1` here?
Its AC50 is 25.1 µM [falling, single point].

For `Cc1nn(C(C)C(=O)O)c2ccccc12` (stereo not drawn), which AC50 is on record?
The AC50 was 3.16 µM [falling, partial curve, poor fit].

For `Cc1ccc(C)c(N2CCN(S(=O)(=O)c3ccc4c(c3)oc(=O)n4C)CC2)c1`, which AC50 is on record?
Its AC50 is 5.01 µM [falling, single point].

Which AC50 does the source give for `COc1ccc(Cc2nccc3cc(OC)c(OC)cc23)cc1OC` here?
Its AC50 is 1.26 µM [rising, full curve] and 794 nM [rising, full curve] and 126 nM [rising, full curve].

Which AC50 does the source give for `COc1cccc(C(=O)COC(=O)C(C)N2C(=O)c3ccccc3C2=O)c1` (stereo not drawn) here?
Its AC50 is 1 µM [falling, partial curve].

For `COCCOC(=O)c1c(NC(=O)CN2CCOCC2)sc(C(N)=O)c1C`, which AC50 is on record?
Its AC50 is 0.1 µM [falling, full curve, poor fit].

For `COc1ccc(NS(=O)(=O)c2ccc(NS(=O)(=O)c3ccc(C)cc3)cc2)nn1`, which AC50 is on record?
The AC50 was 1 µM [rising, full curve].

With `CCN(Cc1ccccc1)Cc1cc(OC)cc(OC)c1` as the molecule, how does the AC50 read?
The AC50 was 0.631 µM [falling, full curve, poor fit].

Which AC50 does the source give for `CCOC(=O)c1[nH]c(COC(=O)c2ccccc2NC(=O)c2ccco2)c(C(=O)OCC)c1C` here?
The AC50 was 10 µM [rising, partial curve].

With `CC(=O)c1cc(C#N)c(SCC(=O)OC(C)(C)C)nc1C` as the molecule, how does the AC50 read?
Its AC50 is 12.6 µM [rising, partial curve].

Which AC50 does the source give for `COc1ccc2c(c1)-c1nc(NC(=O)c3ccco3)sc1CC2` here?
Its AC50 is 15.8 µM [rising, single point].

Which AC50 does the source give for `COc1cc(NC(=O)c2ccc(Cl)cc2)c(OC)cc1NC(=O)CN1CCOCC1` here?
Its AC50 is 5.01 µM [rising, single point].

With `Cn1c2c(c(=O)n(C)c1=O)C(c1ccc(Br)cc1)Nc1ccccc1O2` (stereo not drawn) as the molecule, how does the AC50 read?
Its AC50 is 25.1 µM [rising, single point].

For `CN(C(=O)COC(=O)c1ccccc1Nc1ccccc1)C1CCS(=O)(=O)C1` (stereo not drawn), which AC50 is on record?
The AC50 was 1.26 µM [falling, partial curve].

Which AC50 does the source give for `COC(=O)c1ccc(C(NC(=O)OCc2ccccc2)/C(F)=C/[C@@H](C)C(=O)NCCc2c[nH]c3ccc(OC)cc23)cc1` (stereo partly drawn) here?
The AC50 was 25.1 µM [falling, single point].

Which AC50 does the source give for `CC1CCCCC1NC(=O)C1CCN(S(=O)(=O)N2CCOCC2)CC1` (stereo not drawn) here?
Its AC50 is 2.51 µM [falling, partial curve].

With `Cc1ccc(NS(=O)(=O)c2cccc(C(=O)OCC(=O)NCc3ccco3)c2)cc1` as the molecule, how does the AC50 read?
Its AC50 is 1.26 µM [falling, partial curve].

With `COC(=O)c1ccc(-c2cc(C(=O)O)c3cc4c(cc3n2)OCCO4)cc1` as the molecule, how does the AC50 read?
Its AC50 is 12.6 µM [rising, single point].

For `Nc1ccc2[nH]cc(CCC(=O)O)c2c1`, which AC50 is on record?
Its AC50 is 0.501 µM [rising, single point].

With `CCOC(=O)c1ccc(NS(=O)(=O)c2cc(C)ccc2OC)cc1` as the molecule, how does the AC50 read?
Its AC50 is 5.01 µM [falling, single point].

With `CCCn1c(C)nc2c(N(CCOC)CCOC)nc(C)nc21` as the molecule, how does the AC50 read?
Its AC50 is 10 µM [rising, partial curve].

For `O=C(NCCc1cn2ccccc2n1)c1ccc(Br)o1`, which AC50 is on record?
Its AC50 is 10 µM [rising, partial curve].

Which AC50 does the source give for `COc1cccc(Nc2ncc3nc(-c4ccccc4)c(=O)n(C4CC4)c3n2)c1` here?
The AC50 was 3.16 µM [rising, full curve].

Which AC50 does the source give for `Nc1nc(SCc2ccccn2)c2ncn(C3CCCC3)c2n1` here?
Its AC50 is 0.501 µM [rising, single point].

With `CCC(C)NC(=O)C1CCN(S(=O)(=O)N2CCCC2)CC1` (stereo not drawn) as the molecule, how does the AC50 read?
Its AC50 is 15.8 µM [rising, partial curve].

For `CCNc1nc(SCCOc2ccccc2)nc(N(C)C)n1`, which AC50 is on record?
The AC50 was 3.16 µM [rising, full curve].

Which AC50 does the source give for `CCOC(=O)c1cnc2sc3c(n2c1=O)CCCC3` here?
The AC50 was 10 µM [rising, partial curve].

Which AC50 does the source give for `CCOC(=O)C1=C(CSc2nc(C)ccc2C#N)OC(N)=C(C#N)C1c1cccc(OC)c1OC` (stereo not drawn) here?
Its AC50 is 25.1 µM [rising, single point].

For `O=c1c2cnn(-c3ccccc3)c2ncn1/N=C/c1ccncc1`, which AC50 is on record?
The AC50 was 0.631 µM [falling, full curve, poor fit].

With `COc1ccc(Nc2nc3ccccc3nc2C)cc1` as the molecule, how does the AC50 read?
Its AC50 is 12.6 µM [rising, partial curve].

Which AC50 does the source give for `O=C(Nc1ccccn1)c1ccc2ccccc2n1` here?
Its AC50 is 3.98 µM [falling, partial curve].

For `O=C(NCc1cccs1)C1CCN(S(=O)(=O)c2ccc3c(c2)OCCO3)CC1`, which AC50 is on record?
Its AC50 is 25.1 µM [falling, single point].

With `N#CCSc1nc2c(cc1C#N)CCCC2` as the molecule, how does the AC50 read?
Its AC50 is 12.6 µM [rising, partial curve].

With `Cn1c(=O)c2cnc(N3CCOCC3)nc2n(C)c1=O` as the molecule, how does the AC50 read?
The AC50 was 3.98 µM [falling, partial curve].

Which AC50 does the source give for `Cc1ccc(C2C=C(c3ccc4c(c3)OCO4)Nc3ncnn32)cc1` (stereo not drawn) here?
The AC50 was 25.1 µM [rising, partial curve].

With `Cc1nc2cnc(Nc3ccccc3)nc2n(Cc2ccc(F)cc2)c1=O` as the molecule, how does the AC50 read?
The AC50 was 12.6 µM [rising, partial curve].

For `CCCCCCNC(=O)C(C#N)c1nc2ccccc2nc1N1CCOCC1` (stereo not drawn), which AC50 is on record?
Its AC50 is 5.01 µM [rising, partial curve].

With `CCSc1nc(=O)n(-c2ccccc2)c(C)c1C(C)=O` as the molecule, how does the AC50 read?
Its AC50 is 1 µM [rising, full curve].

With `COc1ccc(C(=O)N2CCN(S(=O)(=O)c3ccccc3)CC2)c(OC)c1` as the molecule, how does the AC50 read?
The AC50 was 12.6 µM [falling, partial curve].

Which AC50 does the source give for `COc1ccc(CCn2c(N3CCN(Cc4ccccc4)CC3)nc3c2c(=O)[nH]c(=O)n3C)cc1` here?
The AC50 was 5.01 µM [rising, partial curve].

Reference: PubChem BioAssay AID662 (National Center for Advancing Translational Sciences (NCATS), 2007)
